Experimental data reported in patent publication US6509344B1, “Indenoisoquinolines as antineoplastic agents” (The United States of America as represented by the …, priority 1998, dated 2003).
For at least one compound, name, drawing or mass did not settle the structure.

Test system: supercoiled SV40 DNA
Experiment: SV40 DNA unwinding assay
Format: biochemical
Conditions: supercoiled DNA in the presence of topoisomerase I
Description: With some of the compounds (e.g. 27), the activity seemed to increase initially as the concentration was increased, but then it declined at higher concentrations. […] The unwinding assay using supercoiled DNA in the presence of topoisomerase I is a simple procedure to detect DNA intercalation.
After electrophoresis, DNA bands were stained in 10 μg/mL of ethidium bromide and visualized by transillumination with UV light (300 nm).

`CC[n+]1cc2cc(OC)c(OC)cc2c2c1-c1cc3c(cc1C2)OCO3` [Compound 27, 6-Ethyl-2,3-dimethoxy-8,9-(methylenedioxy)-11H-indeno[1,2-c]isoquinolinium Chloride] was tested, and the DNA unwinding was “does unwind DNA”.
